# Assay results as given in the supplement of paper PMC4604168 (melanoma cell lines).
# The other results are listed elsewhere or left out. Repeats are few or missing, and single values can be far off.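 Cells were imaged in 1,536-well plates, and nuclei stained with an antibody against cleaved PARP were counted against all DNA-stained nuclei to give the apoptosis fraction. Screening doses were chosen to leave most cells alive, and resting and induced cleaved-PARP levels differ strongly between cell lines.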
# Experiments:
# Experiment in all cases: cleaved PARP positive nuclei fraction relative to DMSO control; melanoma cells; higher = more apoptosis
# Conditions in all cases: library dose: low library concentration; 72 h
# 501Mel = test system: 501Mel
# A101D = test system: A101D
# A2058 = test system: A2058
# A375 = test system: A375
# C32 = test system: C32
# CBRC008 = test system: CBRC008 (line from a melanoma biopsy)
# CBRC013 = test system: CBRC013 (line from a melanoma biopsy)
# CBRC014 = test system: CBRC014 (line from a melanoma biopsy)
# CBRC016 = test system: CBRC016 (line from a melanoma biopsy)
# CBRC017 = test system: CBRC017 (line from a melanoma biopsy)
# COLO792 = test system: COLO792
# COLO800 = test system: COLO800
# COLO829 = test system: COLO829
# G361 = test system: G361
# IPC-298 = test system: IPC-298
# IST-MEL1 = test system: IST-MEL1
# LB2518-MEL = test system: LB2518-MEL
# LOXIMVI = test system: LOXIMVI
# MEL-HO = test system: MEL-HO
# CBRC034 = test system: CBRC034 (line from a melanoma biopsy)
Structure (SMILES),cleaved PARP positive nuclei fraction (501Mel),cleaved PARP positive nuclei fraction (A101D),cleaved PARP positive nuclei fraction (A2058),cleaved PARP positive nuclei fraction (A375),cleaved PARP positive nuclei fraction (C32),cleaved PARP positive nuclei fraction (CBRC008),cleaved PARP positive nuclei fraction (CBRC013),cleaved PARP positive nuclei fraction (CBRC014),cleaved PARP positive nuclei fraction (CBRC016),cleaved PARP positive nuclei fraction (CBRC017),cleaved PARP positive nuclei fraction (COLO792),cleaved PARP positive nuclei fraction (COLO800),cleaved PARP positive nuclei fraction (COLO829),cleaved PARP positive nuclei fraction (G361),cleaved PARP positive nuclei fraction (IPC-298),cleaved PARP positive nuclei fraction (IST-MEL1),cleaved PARP positive nuclei fraction (LB2518-MEL),cleaved PARP positive nuclei fraction (LOXIMVI),cleaved PARP positive nuclei fraction (MEL-HO),cleaved PARP positive nuclei fraction (CBRC034)
"CN(c1ncccc1CNc1nc(Nc2ccc3c(c2)CC(=O)N3)ncc1C(F)(F)F)S(C)(=O)=O + O=C(CCCCCCC(=O)Nc1ccccc1)NO [vorinostat] (first compound 0.08 µM, partner dose 0.08 µM)",196%,85.8%,188%,97.3%,82.7%,287%,71.9%,86.1%,90.5%,117%,96.1%,128%,137%,107%,23.7%,46.6%,39.6%,288%,69%,
"CC1(C)CCC(c2ccc(Cl)cc2)=C(CN2CCN(c3ccc(C(=O)NS(=O)(=O)c4ccc(N[C@H](CCN5CCOCC5)CSc5ccccc5)c(S(=O)(=O)C(F)(F)F)c4)cc3)CC2)C1 + CC(=O)O[C@@]12CO[C@@H]1C[C@H](O)[C@@]1(C)C(=O)[C@H](O)C3=C(C)[C@@H](OC(=O)[C@H](O)[C@@H](NC(=O)OC(C)(C)C)c4ccccc4)C[C@@](O)([C@@H](OC(=O)c4ccccc4)[C@H]21)C3(C)C [Docetaxel] (first compound 0.4 µM, partner dose 0.0001 µM)",815%,541%,4670%,7100%,256%,1250%,,812%,773%,709%,2020%,70.8%,301%,958%,495%,119%,277%,223%,271%,183%
"CCCCCCCCc1ccc(CCC(N)(CO)CO)cc1 [fingolimod] + COc1cc(Nc2ncc(F)c(Nc3ccc4c(n3)NC(=O)C(C)(C)O4)n2)cc(OC)c1OC [Tamatinib] (first compound 2 µM, partner dose 0.4 µM)",42.7%,100%,159%,284%,90.7%,323%,162%,147%,42%,104%,192%,146%,117%,38.3%,36.6%,202%,50.9%,21.7%,173%,
"CCCCCCCCc1ccc(CCC(N)(CO)CO)cc1 [fingolimod] + Cn1cncc1[C@@](N)(c1ccc(Cl)cc1)c1ccc2c(c1)c(-c1cccc(Cl)c1)cc(=O)n2C [tipifarnib] (first compound 2 µM, partner dose 0.01 µM)",190%,52.1%,110%,157%,100%,105%,96.6%,102%,110%,133%,158%,78.4%,208%,48.2%,92.9%,35.4%,125%,269%,70.1%,
"NC(=O)c1ccc(N(C(N)=O)c2c(F)cccc2F)nc1-c1ccc(F)cc1F + C=CCn1c(=O)c2cnc(Nc3ccc(N4CCN(C)CC4)cc3)nc2n1-c1cccc(C(C)(C)O)n1 [MK1775] (first compound 0.4 µM, partner dose 0.02 µM)",85.4%,157%,49.5%,501%,99%,69.5%,53.9%,91.7%,113%,154%,48.9%,107%,107%,93.9%,48.5%,162%,112%,49.2%,66.9%,
"NC1(c2ccc(-c3nc4ccn5c(=O)[nH]nc5c4cc3-c3ccccc3)cc2)CCC1 + CC(=O)c1c(C)c2cnc(Nc3ccc(N4CCNCC4)cn3)nc2n(C2CCCC2)c1=O [palbociclib] (first compound 0.4 µM, partner dose 0.04 µM)",159%,132%,131%,282%,122%,155%,,123%,31.9%,113%,160%,106%,101%,139%,47.2%,126%,152%,91.2%,71.7%,103%
"Cn1sc(=O)n(Cc2ccccc2)c1=O + CN(C)S(=O)(=O)c1ccc2c(c1)/C(=C/c1cc3c([nH]1)CCCC3)C(=O)N2 [SU6656] (first compound 0.4 µM, partner dose 0.4 µM)",86.8%,99.7%,111%,164%,19.6%,184%,72.1%,101%,97.8%,117%,133%,151%,85.2%,132%,93.9%,101%,179%,144%,64%,
"C[C@]1(O)C[C@@H](c2nc(-c3ccc4ccc(-c5ccccc5)nc4c3)c3c(N)nccn32)C1 + CN(C)S(=O)(=O)c1ccc2c(c1)/C(=C/c1cc3c([nH]1)CCCC3)C(=O)N2 [SU6656] (first compound 0.4 µM, partner dose 0.4 µM)",120%,125%,69.4%,302%,239%,286%,138%,90.1%,81.4%,151%,58.9%,74.7%,120%,74.5%,100%,73.1%,123%,112%,70.6%,
"Cn1sc(=O)n(Cc2ccccc2)c1=O + Cc1ccc(NC(=O)c2cccc(N(C)C)c2)cc1NC(=O)c1ccc(O)cc1 [ZM336372] (first compound 0.4 µM, partner dose 2 µM)",416%,87.8%,111%,112%,99.6%,76.9%,62.8%,130%,109%,92.8%,124%,65%,106%,114%,105%,158%,213%,115%,76.8%,
"CC(=O)O[C@@]12CO[C@@H]1C[C@H](O)[C@@]1(C)C(=O)[C@H](O)C3=C(C)[C@@H](OC(=O)[C@H](O)[C@@H](NC(=O)OC(C)(C)C)c4ccccc4)C[C@@](O)([C@@H](OC(=O)c4ccccc4)[C@H]21)C3(C)C [Docetaxel] + Cn1cncc1[C@@](N)(c1ccc(Cl)cc1)c1ccc2c(c1)c(-c1cccc(Cl)c1)cc(=O)n2C [tipifarnib] (first compound 0.0001 µM, partner dose 0.01 µM)",346%,226%,9650%,12900%,444%,680%,54.6%,123%,481%,116%,593%,231%,501%,1040%,249%,177%,196%,364%,107%,
"CS(=O)(=O)c1ccc(C(=O)Nc2ccc(Cl)c(-c3ccccn3)c2)c(Cl)c1 [vismodegib] + COc1cc2c(Oc3ccc4[nH]c(C)cc4c3F)ncnc2cc1OCCCN1CCCC1 [cediranib] (first compound 1 µM, partner dose 0.4 µM)",87.8%,68.3%,155%,223%,187%,65.4%,106%,80%,78.6%,83.2%,145%,104%,91.9%,44.3%,94.3%,121%,80.3%,198%,209%,
"NC1(c2ccc(-c3nc4ccn5c(=O)[nH]nc5c4cc3-c3ccccc3)cc2)CCC1 + Cc1ccc(NC(=O)c2cccc(N(C)C)c2)cc1NC(=O)c1ccc(O)cc1 [ZM336372] (first compound 0.4 µM, partner dose 2 µM)",84.7%,152%,77.5%,139%,149%,44.9%,103%,88.6%,160%,88.1%,240%,191%,152%,78.8%,75.8%,27.7%,74.8%,103%,74.4%,
"CS(=O)(=O)c1ccc(C(=O)Nc2ccc(Cl)c(-c3ccccn3)c2)c(Cl)c1 [vismodegib] + COCC[n+]1c2c(n(Cc3cnccn3)c1C)C(=O)c1ccccc1C2=O [YM155] (first compound 1 µM, partner dose 0.0004 µM)",78.1%,171%,37%,206%,101%,75.9%,,102%,28.3%,96.7%,102%,147%,212%,94.5%,135%,135%,110%,76.6%,75.2%,116%
"CCN(CC)CCNC(=O)c1c(C)[nH]c(/C=C2\C(=O)Nc3ccc(F)cc32)c1C [sunitinib] + CO[C@H]1C[C@@H]2CC[C@@H](C)[C@@](O)(O2)C(=O)C(=O)N2CCCC[C@H]2C(=O)O[C@H]([C@H](C)C[C@@H]2CC[C@@H](OCCO)[C@H](OC)C2)CC(=O)[C@H](C)/C=C(\C)[C@@H](O)[C@@H](OC)C(=O)[C@H](C)C[C@H](C)/C=C/C=C/C=C/1C [everolimus] (first compound 0.4 µM, partner dose 0.02 µM)",1010%,246%,200%,551%,103%,219%,,110%,158%,117%,174%,192%,67.4%,146%,164%,501%,32.9%,501%,112%,102%
"CS(=O)(=O)c1ccc(C(=O)Nc2ccc(Cl)c(-c3ccccn3)c2)c(Cl)c1 [vismodegib] + CC1(C)NC(=O)N(c2ccc([N+](=O)[O-])c(C(F)(F)F)c2)C1=O [nilutamide] (first compound 1 µM, partner dose 1 µM)",42.8%,83.2%,101%,36.3%,117%,78.5%,76.3%,160%,255%,80.9%,32%,80.2%,168%,160%,144%,48.9%,88.2%,64.5%,80.6%,
"COc1ccc(C2=N[C@@H](c3ccc(Cl)cc3)[C@@H](c3ccc(Cl)cc3)N2C(=O)N2CCNC(=O)C2)c(OC(C)C)c1 [Nutlin-3] + O=C(O)[C@@H]1[O][Sb](=[O])([O][Sb]2(=[O])[O][C@H]([C@H](O)CO)[C@H](O)[C@H](C(=O)O)[O]2)[O][C@H]([C@H](O)CO)[C@@H]1O [stibogluconate] (first compound 0.1 µM, partner dose 2 µM)",95.1%,121%,114%,120%,79.9%,115%,,86.6%,23.5%,109%,95%,91.6%,74.5%,138%,149%,62.8%,107%,75.5%,200%,20.4%

# Looked up above.
# Value of CN(c1ncccc1CNc1nc(Nc2ccc3c(c2)CC(=O)N3)ncc1C(F)(F)F)S(C)(=O)=O + O=C(CCCCCCC(=O)Nc1ccccc1)NO [vorinostat] (first compound 0.08 µM, partner dose 0.08 µM) under cleaved PARP positive nuclei fraction (CBRC016): 90.5%
# Value of Cn1sc(=O)n(Cc2ccccc2)c1=O + CN(C)S(=O)(=O)c1ccc2c(c1)/C(=C/c1cc3c([nH]1)CCCC3)C(=O)N2 [SU6656] (first compound 0.4 µM, partner dose 0.4 µM) under cleaved PARP positive nuclei fraction (A101D): 99.7%
